What all share (assay): co-IP
For experiment [1], the target named is T1, cystinosinLKG-DsRed (human) (UniProt O60931).
T1 sequence: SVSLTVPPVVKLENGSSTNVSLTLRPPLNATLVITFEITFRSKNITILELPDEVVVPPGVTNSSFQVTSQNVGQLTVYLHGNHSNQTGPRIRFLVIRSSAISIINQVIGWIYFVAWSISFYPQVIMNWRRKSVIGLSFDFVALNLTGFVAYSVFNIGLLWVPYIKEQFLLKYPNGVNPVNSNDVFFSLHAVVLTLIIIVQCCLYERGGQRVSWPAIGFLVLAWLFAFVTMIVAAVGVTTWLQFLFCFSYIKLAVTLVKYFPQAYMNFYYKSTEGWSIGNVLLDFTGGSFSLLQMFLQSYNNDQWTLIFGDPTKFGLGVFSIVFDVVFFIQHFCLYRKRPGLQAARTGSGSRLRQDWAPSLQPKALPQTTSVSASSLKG

Protein sequences, listed by entry. Tags and fused reporters are not part of them. Residues count along the entry.
UniProt P48764, residues 26-834: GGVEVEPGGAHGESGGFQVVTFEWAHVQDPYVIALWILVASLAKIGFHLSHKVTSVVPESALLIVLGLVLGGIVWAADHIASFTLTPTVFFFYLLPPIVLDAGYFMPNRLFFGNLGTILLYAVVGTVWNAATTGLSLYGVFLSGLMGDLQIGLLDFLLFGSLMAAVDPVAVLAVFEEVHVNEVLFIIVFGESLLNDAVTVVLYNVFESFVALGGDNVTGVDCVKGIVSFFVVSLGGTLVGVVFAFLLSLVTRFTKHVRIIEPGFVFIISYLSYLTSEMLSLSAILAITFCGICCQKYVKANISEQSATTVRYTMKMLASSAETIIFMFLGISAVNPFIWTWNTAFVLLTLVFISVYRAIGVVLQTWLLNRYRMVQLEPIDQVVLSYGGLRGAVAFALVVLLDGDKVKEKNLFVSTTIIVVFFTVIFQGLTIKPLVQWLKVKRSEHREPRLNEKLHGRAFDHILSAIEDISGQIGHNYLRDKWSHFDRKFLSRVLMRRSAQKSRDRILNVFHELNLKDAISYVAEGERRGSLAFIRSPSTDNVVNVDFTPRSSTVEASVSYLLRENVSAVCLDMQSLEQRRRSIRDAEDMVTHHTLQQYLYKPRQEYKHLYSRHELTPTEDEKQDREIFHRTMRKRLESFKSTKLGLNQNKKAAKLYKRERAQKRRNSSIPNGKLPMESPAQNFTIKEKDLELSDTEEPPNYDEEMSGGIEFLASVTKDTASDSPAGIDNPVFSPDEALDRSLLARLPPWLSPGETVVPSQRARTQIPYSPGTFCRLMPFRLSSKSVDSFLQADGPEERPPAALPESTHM
UniProt P19634: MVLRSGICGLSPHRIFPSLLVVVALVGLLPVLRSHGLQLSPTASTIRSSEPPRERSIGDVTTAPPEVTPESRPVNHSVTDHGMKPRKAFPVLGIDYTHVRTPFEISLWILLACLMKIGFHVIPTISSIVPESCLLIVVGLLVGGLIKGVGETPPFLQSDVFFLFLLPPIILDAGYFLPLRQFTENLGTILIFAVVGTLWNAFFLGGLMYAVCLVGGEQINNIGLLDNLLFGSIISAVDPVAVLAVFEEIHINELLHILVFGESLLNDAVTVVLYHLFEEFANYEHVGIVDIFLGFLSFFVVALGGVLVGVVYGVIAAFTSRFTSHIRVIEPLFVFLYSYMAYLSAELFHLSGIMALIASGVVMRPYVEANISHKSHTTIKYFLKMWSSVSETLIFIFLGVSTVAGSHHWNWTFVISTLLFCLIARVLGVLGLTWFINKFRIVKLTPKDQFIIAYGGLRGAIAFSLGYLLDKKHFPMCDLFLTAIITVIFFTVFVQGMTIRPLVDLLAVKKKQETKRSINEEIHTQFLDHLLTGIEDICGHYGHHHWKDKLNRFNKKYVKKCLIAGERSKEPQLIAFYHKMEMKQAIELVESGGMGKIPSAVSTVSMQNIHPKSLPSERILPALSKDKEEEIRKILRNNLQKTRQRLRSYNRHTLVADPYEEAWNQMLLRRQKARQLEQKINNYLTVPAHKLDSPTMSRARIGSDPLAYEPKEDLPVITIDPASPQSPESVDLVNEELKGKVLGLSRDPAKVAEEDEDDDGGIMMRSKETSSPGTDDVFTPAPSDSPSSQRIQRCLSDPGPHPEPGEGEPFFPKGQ

The target of experiment [2] is NHE3-GFP (Na+/H+ exchanger isoform 3 fused with green fluorescent protein) (human) (UniProt P48764).
Experiment [3] addresses NHE1-GFP (human) (UniProt P19634).
Experiment [4] has as its target T2, NHE2-GFP (human) (UniProt Q9UBY0).
T2 sequence: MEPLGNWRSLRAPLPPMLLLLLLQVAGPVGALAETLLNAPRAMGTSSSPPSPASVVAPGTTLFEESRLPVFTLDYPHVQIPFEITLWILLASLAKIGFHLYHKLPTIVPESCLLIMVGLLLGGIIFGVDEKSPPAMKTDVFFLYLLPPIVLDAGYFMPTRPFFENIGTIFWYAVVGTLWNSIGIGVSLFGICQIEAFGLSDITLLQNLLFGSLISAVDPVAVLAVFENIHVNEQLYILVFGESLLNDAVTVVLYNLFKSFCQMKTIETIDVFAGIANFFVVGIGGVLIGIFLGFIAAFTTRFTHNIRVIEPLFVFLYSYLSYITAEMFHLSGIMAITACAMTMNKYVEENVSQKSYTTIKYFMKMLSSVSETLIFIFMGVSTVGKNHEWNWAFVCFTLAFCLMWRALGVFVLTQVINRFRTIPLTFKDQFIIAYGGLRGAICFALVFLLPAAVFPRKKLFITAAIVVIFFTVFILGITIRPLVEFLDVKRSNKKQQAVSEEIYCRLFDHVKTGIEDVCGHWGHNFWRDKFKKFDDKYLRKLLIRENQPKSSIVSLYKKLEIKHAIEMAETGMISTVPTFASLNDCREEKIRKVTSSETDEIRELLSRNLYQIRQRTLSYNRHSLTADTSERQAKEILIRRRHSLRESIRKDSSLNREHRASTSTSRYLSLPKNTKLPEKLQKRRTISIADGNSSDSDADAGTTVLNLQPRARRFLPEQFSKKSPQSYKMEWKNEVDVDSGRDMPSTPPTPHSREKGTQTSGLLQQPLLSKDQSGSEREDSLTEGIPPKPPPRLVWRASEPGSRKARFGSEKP

Results are given in words; binding and its absence hold for the method and conditions named. In cells and extracts the contact can be indirect. Some binding calls cover weakened binding; strength is not graded here. For part of these data: Where a sequence is shown, tags or fusion partners need not be part of it.

Regarding NHE1-GFP (from UniProt P19634 1-815), the binding entry in experiment [1] is reported as “no binding”.
With “NHE3-GFP (Na+/H+ exchanger isoform 3 fused with green fluorescent protein) (from UniProt P48764 26-834)”, in experiment [1], the binding result was “binds”.

B1: NHE2-GFP (protein, UniProt Q9UBY0 1-812)
chain: T2 sequence
On to B1, for which, in experiment [1], the binding result is reported as “binds”.

B2: cystinosinLKG-DsRed (protein, UniProt O60931-2 23-400)
chain: T1 sequence
B2: the binding entry in experiment [2] is listed as “binds”; in experiment [3], “no binding”; in experiment [4], “binds”.
